# Results as given in the supplement of paper PMC10032668.
# The chains behind the UniProt entries cited, without tags or fusion partners.
# CALR, P27797, UniProt P27797, whole entry: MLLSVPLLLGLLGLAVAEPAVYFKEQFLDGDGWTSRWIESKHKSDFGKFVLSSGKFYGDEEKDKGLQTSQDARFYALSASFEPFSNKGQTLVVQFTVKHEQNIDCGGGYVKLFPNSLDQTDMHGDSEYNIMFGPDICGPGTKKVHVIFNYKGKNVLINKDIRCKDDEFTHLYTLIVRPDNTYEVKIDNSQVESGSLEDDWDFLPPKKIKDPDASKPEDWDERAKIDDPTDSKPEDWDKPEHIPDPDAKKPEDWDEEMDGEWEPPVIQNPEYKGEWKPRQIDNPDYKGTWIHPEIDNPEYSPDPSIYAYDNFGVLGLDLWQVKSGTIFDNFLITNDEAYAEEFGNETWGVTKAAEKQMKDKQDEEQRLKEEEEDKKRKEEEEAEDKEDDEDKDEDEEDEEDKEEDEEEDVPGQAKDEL
# TUBB8, Q3ZCM7, UniProt Q3ZCM7, whole entry: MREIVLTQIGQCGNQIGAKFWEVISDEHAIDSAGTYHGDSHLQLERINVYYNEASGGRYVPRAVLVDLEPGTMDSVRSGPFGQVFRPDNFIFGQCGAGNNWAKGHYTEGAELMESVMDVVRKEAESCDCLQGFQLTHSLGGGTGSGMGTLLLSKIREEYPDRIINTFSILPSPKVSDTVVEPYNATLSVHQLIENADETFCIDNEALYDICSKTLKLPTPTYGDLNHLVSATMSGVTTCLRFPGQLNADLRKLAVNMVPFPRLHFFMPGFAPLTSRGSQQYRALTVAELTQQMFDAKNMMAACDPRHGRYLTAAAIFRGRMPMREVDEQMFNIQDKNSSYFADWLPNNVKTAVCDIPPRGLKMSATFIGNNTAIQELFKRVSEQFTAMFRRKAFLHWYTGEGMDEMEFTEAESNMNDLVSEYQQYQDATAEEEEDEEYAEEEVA
# The list shows a part of the results. The list holds hits alone, and they repeat only in part.
# B1: IFRD1 (peptide)
# chain: RPPHRRTSKKCSSIG
# B2: SNHG8 (peptide)
# chain: TALPKRQRSQDIGRS
# B3: PEX2 (peptide)
# chain: KRECEECKQSAKNKP
# B4: NAV2-AS2_2 (peptide)
# chain: SQAGKPLTPKAKMPK
# Assays:
# Assay in all cases: PRISMA enrichment of interactor (LFQ) in peptide spot vs all other peptide spots (log2 fold change); higher = stronger / more specific binding of the interactor to the peptide
# ANP32A, P39687 = biological target: ANP32A, P39687
# Description: (§1)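 PRISMA: 15-aa overlapping tiles (offset 8 aa) of 60 microproteins, plus SOS1/GLUT1 control peptides, were spot-synthesized on cellulose membranes in triplicate. Membranes were incubated with benzonase-treated HEK293T lysate, and bound proteins were identified by LC-MS/MS with LFQ. Enrichment is the log2 fold change of each protein in one spot versus all other spots. Only interactors passing the significance cutoff are listed.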
# ANP32B, Q92688 = biological target: ANP32B, Q92688
# Description: as §1
# EIF1AD, Q8N9N8 = biological target: EIF1AD, Q8N9N8
# Description: as §1
# MMS19, Q96T76 = biological target: MMS19, Q96T76
# Description: as §1
# NUCKS1, Q9H1E3 = biological target: NUCKS1, Q9H1E3
# Description: as §1
# PTGES3, Q15185 = biological target: PTGES3, Q15185
# Description: as §1
# TRRAP, Q9Y4A5 = biological target: TRRAP, Q9Y4A5
# Description: as §1
# CALR, P27797 = biological target: CALR, P27797
# Description: as §1
# HMGCL, P35914 = biological target: HMGCL, P35914
# Description: as §1
# IDH1, O75874 = biological target: IDH1, O75874
# Description: as §1
# KIFC1, Q9BW19 = biological target: KIFC1, Q9BW19
# Description: as §1
# MED11, Q9P086 = biological target: MED11, Q9P086
# Description: as §1
# RPLP1, P05386 = biological target: RPLP1, P05386
# Description: as §1
# RPS29, P62273 = biological target: RPS29, P62273
# Description: as §1
# TUBB8, Q3ZCM7 = biological target: TUBB8, Q3ZCM7
# Description: as §1
# CKAP2, Q8WWK9 = biological target: CKAP2, Q8WWK9
# Description: as §1
# CMPK1, P30085 = biological target: CMPK1, P30085
# Description: as §1
# IDH3B, O43837 = biological target: IDH3B, O43837
# Description: as §1
# PRKCSH, P14314 = biological target: PRKCSH, P14314
# Description: as §1
# SERF1B, O75920 = biological target: SERF1B, O75920
# Description: as §1
# SLC25A24, Q6NUK1 = biological target: SLC25A24, Q6NUK1
# Description: as §1
# SMARCD2, Q92925 = biological target: SMARCD2, Q92925
# Description: as §1
# TXNDC5, Q8NBS9 = biological target: TXNDC5, Q8NBS9
# Description: as §1
# ZNF503, Q96F45 = biological target: ZNF503, Q96F45
# Description: as §1
# ATG3, Q9NT62 = biological target: ATG3, Q9NT62
# Description: as §1
# BHMT, Q93088 = biological target: BHMT, Q93088
# Description: as §1
# DNM1L, O00429 = biological target: DNM1L, O00429
# Description: as §1
# HNRNPC, P07910 = biological target: HNRNPC, P07910
# Description: as §1
# NCL, P19338 = biological target: NCL, P19338
# Description: as §1
# PELP1, Q8IZL8 = biological target: PELP1, Q8IZL8
# Description: as §1
# PTMA, P06454 = biological target: PTMA, P06454
# Description: as §1
# PTMS, P20962 = biological target: PTMS, P20962
# Description: as §1
# PUS1, Q9Y606 = biological target: PUS1, Q9Y606
# Description: as §1
# RNASEH1, O60930 = biological target: RNASEH1, O60930
# Description: as §1
# SMIM12, Q96EX1 = biological target: SMIM12, Q96EX1
# Description: as §1
# SUGT1, Q9Y2Z0 = biological target: SUGT1, Q9Y2Z0
# Description: as §1
# SUPT4H1, P63272 = biological target: SUPT4H1, P63272
# Description: as §1
# SYMPK, Q92797 = biological target: SYMPK, Q92797
# Description: as §1
# YIF1B, Q5BJH7 = biological target: YIF1B, Q5BJH7
# Description: as §1
# ZNF771, Q7L3S4 = biological target: ZNF771, Q7L3S4
# Description: as §1
binder,measurement,setting,value
B1,PRISMA enrichment of interactor (log2),"ANP32A, P39687",5.95
same,PRISMA enrichment of interactor (log2),"ANP32B, Q92688",6.18
same,PRISMA enrichment of interactor (log2),"EIF1AD, Q8N9N8",4.41
same,PRISMA enrichment of interactor (log2),"MMS19, Q96T76",4.7
same,PRISMA enrichment of interactor (log2),"NUCKS1, Q9H1E3",5.04
same,PRISMA enrichment of interactor (log2),"PTGES3, Q15185",5.09
same,PRISMA enrichment of interactor (log2),"TRRAP, Q9Y4A5",5.68
B2,PRISMA enrichment of interactor (log2),"ANP32A, P39687",6.31
same,PRISMA enrichment of interactor (log2),"ANP32B, Q92688",6.83
same,PRISMA enrichment of interactor (log2),"CALR, P27797",5.44
same,PRISMA enrichment of interactor (log2),"HMGCL, P35914",4.07
same,PRISMA enrichment of interactor (log2),"IDH1, O75874",4.5
same,PRISMA enrichment of interactor (log2),"KIFC1, Q9BW19",5.9
same,PRISMA enrichment of interactor (log2),"MED11, Q9P086",7.81
same,PRISMA enrichment of interactor (log2),"RPLP1, P05386",6.36
same,PRISMA enrichment of interactor (log2),"RPS29, P62273",4.66
same,PRISMA enrichment of interactor (log2),"TUBB8, Q3ZCM7",4.42
B3,PRISMA enrichment of interactor (log2),"ANP32A, P39687",5.98
same,PRISMA enrichment of interactor (log2),"CKAP2, Q8WWK9",4.88
same,PRISMA enrichment of interactor (log2),"CMPK1, P30085",8.4
same,PRISMA enrichment of interactor (log2),"IDH3B, O43837",5.26
same,PRISMA enrichment of interactor (log2),"PRKCSH, P14314",4.8
same,PRISMA enrichment of interactor (log2),"SERF1B, O75920",5.45
same,PRISMA enrichment of interactor (log2),"SLC25A24, Q6NUK1",4.43
same,PRISMA enrichment of interactor (log2),"SMARCD2, Q92925",3.7
same,PRISMA enrichment of interactor (log2),"TXNDC5, Q8NBS9",5.81
same,PRISMA enrichment of interactor (log2),"ZNF503, Q96F45",4.11
B4,PRISMA enrichment of interactor (log2),"ANP32A, P39687",8.25
same,PRISMA enrichment of interactor (log2),"ATG3, Q9NT62",4.65
same,PRISMA enrichment of interactor (log2),"BHMT, Q93088",7.68
same,PRISMA enrichment of interactor (log2),"DNM1L, O00429",6.43
same,PRISMA enrichment of interactor (log2),"EIF1AD, Q8N9N8",4.12
same,PRISMA enrichment of interactor (log2),"HNRNPC, P07910",5.14
same,PRISMA enrichment of interactor (log2),"NCL, P19338",4.96
same,PRISMA enrichment of interactor (log2),"PELP1, Q8IZL8",5.44
same,PRISMA enrichment of interactor (log2),"PTMA, P06454",8.13
same,PRISMA enrichment of interactor (log2),"PTMS, P20962",5.53
same,PRISMA enrichment of interactor (log2),"PUS1, Q9Y606",5.59
same,PRISMA enrichment of interactor (log2),"RNASEH1, O60930",4.09
same,PRISMA enrichment of interactor (log2),"SMIM12, Q96EX1",3.61
same,PRISMA enrichment of interactor (log2),"SUGT1, Q9Y2Z0",5.17
same,PRISMA enrichment of interactor (log2),"SUPT4H1, P63272",5.82
same,PRISMA enrichment of interactor (log2),"SYMPK, Q92797",4.31
same,PRISMA enrichment of interactor (log2),"YIF1B, Q5BJH7",4.41
same,PRISMA enrichment of interactor (log2),"ZNF771, Q7L3S4",4.46
